At least one structure is not confirmed: it was looked up by name or label, or the drawing left a doubt.
Tested on: maize anthers
Assay: Ectopic archesporial (AR) cell formation after reducing or oxidizing treatments
Type: in vivo

Compound: [I-].[K+] [KI]
- niche - forming (periclinal divisions generating EN/SPL-like bilayer around ectopic AR) (fertile genotype): Y
- niche - forming (periclinal divisions generating EN/SPL-like bilayer around ectopic AR) (msca1 genotype): Y
